In PubChem BioAssay AID493014 (National Center for Advancing Translational Sciences (NCATS), 2011) one finds AC50 data, which are given here for 64 molecules.

The nature of this experiment: qHTS Assay to Find Inhibitors of Chronic Active B-Cell Receptor Signaling. The settings on record: ABC-DLBCL IkBa-CBG/CBR reporter, luminescence ratio (green luciferase fused to IkBa over red control in TMD8 lymphoma cells), 4 h. The procedure, abridged: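 TMD8 human ABC-DLBCL cells with doxycycline-inducible IκBα–green luciferase fusion and unfused red luciferase, in 0.5% FBS medium; compounds up to 46 uM, 4 h at 37C. Green/red luminescence ratio, filter-overlap corrected, fitted to concentration-response curves.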
For orientation: In qHTS, concentration-response curves come from the screen itself.

[1] abbreviates: measured here: CBR red luminescence, cell number.
Setting [2] is: measured here: IkBa-CBG green luminescence.

This is one part of the list. Further columns of the screen follow, without active or inactive calls. Most of these compounds were active or inconclusive in the main read-out, so they are no random draw. The note in brackets gives the kind of curve behind each potency; many fits are weak.

For the molecule `COc1ccc(S(=O)(=O)Nc2ccc3c(c2)C(=O)N([C@H](C)CO)C[C@H](C)[C@@H](CN(C)S(=O)(=O)c2ccccc2)O3)cc1`, the AC50 under setting [1] was 10.3 µM [rising, partial curve].

`Cc1ccc(-c2[nH]ncc2/C=C(\C#N)C(=O)NC2CCCCC2)cc1`: the AC50 under setting [1] was 35.5 µM [falling, single point]. With `COc1ccc(/C=C(\CC(=O)O)c2nc3ccccc3s2)cc1O`, the AC50 under setting [1] is 5.62 µM [falling, partial curve].

Regarding `COc1ccc(/C=N/NC(=O)c2ccc(O)cc2O)cc1CSc1ccccn1`, the half-maximal activity concentration (AC50) under setting [1] was 9.2 µM [falling, partial curve]. With `O=C(c1ccc(N2CCN(C3CC(=O)N(Cc4cccs4)C3=O)CC2)cc1)c1cccnc1` (stereo unspecified), the AC50 under setting [1] is 35.5 µM [falling, single point].

As to `CC(C)c1cc(CN2CCOCC2)cc(C(C)C)c1O`, the AC50 under setting [1] is 2.82 µM [rising, partial curve, poor fit]. `COc1cc(CC2COC(c3ccc(O)c(OC)c3)C2COC(C)=O)ccc1O` (stereo unspecified): the AC50 under setting [1] is 5.62 µM [rising, single point].

On to `Cc1cc(O)c(C(C)C)cc1N=Nc1ccccc1C(=O)O`, for which the AC50 under setting [1] is 35.5 µM [falling, single point]. Regarding `CCN(CC)S(=O)(=O)c1ccc(OCC(=O)NC(=O)Cc2ccccc2)c([N+](=O)[O-])c1`, under setting [1], the AC50 was 32.6 µM [rising, single point]. With `O=C(NC(=S)N1CCN(C/C=C/c2ccccc2)CC1)c1cccnc1`, the AC50 under setting [1] was 35.5 µM [falling, single point]. The same measure, in the same setting: as for `Cn1c(COc2ccccc2)nc2ccccc21`, the figure is 3.55 µM [rising, full curve, poor fit]; as for `Cc1ccc(C)c(NC(=O)CCc2ccc(S(=O)(=O)NC3CCCCC3)cc2)c1`, 0.82 µM [falling, partial curve, poor fit]; as for `Cc1cc(C)c2cc(C(=O)Nc3ccccc3)[nH]c2c1`, 10 µM [falling, partial curve, poor fit]. Turning to `OCCN1CCN(CC(O)COc2ccc(Cl)cc2)CC1` (stereo unspecified), the AC50 under setting [1] is 10.3 µM [rising, single point]. In the case of `CCCCCCCCCCCCOC(=O)C[N+](C)(C)C`, the AC50 under setting [2] is 35.5 µM [rising, partial curve, poor fit]. Turning to `COc1ccc(CCNC(=O)c2cccc(NC(=O)CC3SC(N4CCCCC4)=NC3=O)c2)cc1OC` (stereo unspecified), under setting [1], the AC50 is 14.1 µM [falling, partial curve, poor fit]. `COc1ccc(NC(=O)N(CCN2CCCC2)Cc2cc3cc(OC)c(OC)cc3[nH]c2=O)cc1`: under setting [1], the AC50 was 11.2 µM [rising, partial curve, poor fit]. On the same count and under the same terms, the figure for `Cc1c(Nc2scc(-c3ccccc3)[n+]2-c2ccccc2)c(=O)n(-c2ccccc2)n1C` is 17.8 µM [rising, single point]; for `CCc1cccc(CC)c1NC(=O)COC(=O)C1(C)CC1(Cl)Cl` (stereo unspecified) it is 35.5 µM [rising, single point]; for `O=C(NC(=O)N1CCOCC1)c1ccccc1` it is 32.6 µM [rising, single point]. Still for that read-out and setting: the figure for `Cc1ccccc1C(=O)NC(=S)Nc1ncccn1` is 11.2 µM [falling, single point]; for `O=C(N/N=C/CCc1ccccc1)c1ccccc1` it is 8.91 µM [falling, partial curve]; for `CCCC(=O)N=c1sc2c(OC)ccc(OC)c2n1C` it is 0.112 µM [rising, full curve, poor fit]. For `Cc1c(C(=O)OCC(=O)Nc2ccc(S(N)(=O)=O)cc2)oc2c1ccc1ccccc12`, the AC50 under setting [1] was 17.8 µM [rising, partial curve, poor fit]. Same read-out and setting: the figure for `O=C(Nc1cccc(S(=O)(=O)N2CCOCC2)c1)c1ccc2ccccc2n1` is 14.1 µM [falling, single point].

As for `CCC(CO)Oc1cc(NCc2ccccc2)c2ncn(C(C)C)c2c1` (stereo unspecified), the AC50 under setting [1] is 16.4 µM [falling, partial curve, poor fit].

Regarding `CCOc1ccc(N2C(=O)CS/C2=N/NC(=O)COc2ccc3ccccc3c2)cc1`, the concentration at half-maximal activity (AC50) under setting [1] was 3.98 µM [rising, full curve]. The same measure, in the same setting: the figure for `Cc1ccc2sc(NC(=O)c3cccc(N4C(=O)CCC4=O)c3)nc2c1C` is 0.501 µM [falling, full curve, poor fit]; for `COc1ccccc1NC(=O)c1c(N=Cc2cccc([N+](=O)[O-])c2)cnn1C` it is 3.55 µM [rising, full curve]. Turning to `COc1ccc(NS(=O)(=O)c2cc(NC(=O)CCNC(C)=O)ccc2N2CCCCC2)cc1`, the concentration at half-maximal activity (AC50) under setting [1] is 29.1 µM [rising, single point]. For the molecule `COc1ccc2c(c1)[C@H]1[C@H](CO2)[C@H](c2ccccc2)[C@]2(C)C(=O)Nc3ccccc3C(=O)N12`, the AC50 is, setting by setting: under setting [1], 6.51 µM [falling, partial curve]; under setting [2], 7.31 µM [rising, partial curve, poor fit]. For `Cc1ccc(Oc2ncc(CN3CCOCC3)s2)cc1`, under setting [1], the AC50 is 22.4 µM [rising, single point]. The same measure, in the same setting: as for `COC(=O)c1cc(Br)ccc1-c1ccc(/C=N/n2nnnc2N)o1`, the figure is 1.84 µM [falling, partial curve, poor fit]; as for `CC1=C(C(=O)Nc2ccccn2)C(c2ccc(F)cc2)n2ncnc2N1` (stereo unspecified), 11.2 µM [falling, partial curve, poor fit].

For the molecule `CCOc1ccc(C(=O)NC(=S)Nc2ccc(N3CCC(C)CC3)cc2)cc1[N+](=O)[O-]`, the AC50 under setting [1] is 7.31 µM [rising, partial curve, poor fit]. Same read-out and setting: the figure for `CC(=O)N/C(N)=N/c1nc2cc([N+](=O)[O-])ccc2o1` is 2.82 µM [rising, single point].

As for `COc1cccc(NC(=O)Nc2ccc3c(c2)nc(C)n3C)c1`, the AC50 under setting [1] was 7.08 µM [falling, partial curve]. As for `O=C(CCc1nc(-c2ccccc2)no1)NCc1cccnc1`, the AC50 under setting [1] is 20.6 µM [rising, partial curve, poor fit]. Still for that read-out and setting: the figure for `Cc1cc(=O)[nH]c(N/N=C/c2ccc3c(c2)OCCO3)n1` is 8.91 µM [falling, partial curve]; for `O=C1c2[nH]nc(-c3ccccc3O)c2C(c2ccc(F)cc2)N1CC1CCCO1` (stereo unspecified) it is 18.4 µM [falling, partial curve, poor fit]; for `CSC1=NCCN1S(=O)(=O)c1ccc(F)cc1` it is 6.31 µM [falling, partial curve, poor fit]. For `N#CC1=C(N)n2c(s/c(=C\c3cccs3)c2=O)=C(C#N)C1c1cccs1` (stereo unspecified), the AC50 under setting [1] was 0.116 µM [falling, full curve, poor fit]. Take `CCOc1ccc(S(=O)(=O)NCCC(=O)NCCc2ccc(OCC)c(OCC)c2)cc1`: under setting [1], the AC50 was 14.6 µM [rising, partial curve, poor fit]. For `COc1cc(/C=C2\N=C3CCCCCN3C2=O)ccc1O`, the AC50 under setting [1] is 4.61 µM [falling, full curve, poor fit]. Consider `Cc1ccccc1C(=O)N/N=C/c1ccc(OCC(=O)N2CCCCC2)cc1`, for which the AC50 under setting [1] was 2.82 µM [falling, full curve]. Take `CCOc1ccc(-c2nnn(CC(=O)Nc3cccc(OC)c3)n2)cc1OCC`: the AC50 under setting [2] is 20.6 µM [falling, single point]. For `N#CC1=C(N)Oc2n[nH]c(-c3ccccn3)c2C1c1c(F)cccc1Cl` (stereo unspecified), the AC50 under setting [1] was 29.1 µM [falling, single point].

`Cc1nc2ccc(NC(=O)CCS(=O)(=O)c3ccc(Cl)cc3)cc2s1`: the AC50 under setting [1] was 6.51 µM [rising, single point]. Consider `Cc1nn(CCC(=O)O)c(C)c1C`, for which the AC50 under setting [1] was 29.1 µM [rising, single point]. Still for that read-out and setting: the figure for `O=C(NCc1ccccc1Cl)c1cccc(NC(=O)c2ccccc2)c1` is 29.1 µM [falling, single point]; for `COc1cnc(-c2ccccn2)nc1Sc1ccccc1` it is 25.1 µM [falling, single point]. With `COC(=O)C(CC(=O)O)NCc1ccco1` (stereo unspecified), the AC50 under setting [1] is 12.6 µM [rising, single point]. For the molecule `CSc1cccc(NC(=O)/C=C/c2ccc(Cl)cc2)c1`, under setting [1], the AC50 is 17.8 µM [falling, partial curve, poor fit]. Still for that read-out and setting: as for `COc1ccc(C(=O)CSc2nnc(-c3cccs3)n2-c2ccccc2)cc1`, the figure is 29.1 µM [rising, single point]. Regarding `CCOC(=O)/C(C#N)=C/c1cc2ccc(C)cc2nc1Cl`, the AC50 under setting [2] is 29.1 µM [falling, single point]. In the case of `Cc1ccc(NC(=O)c2ccco2)c([N+](=O)[O-])c1`, the AC50 is, setting by setting: under setting [1], 3.16 µM [rising, partial curve]; under setting [2], 12.6 µM [falling, partial curve]. For `O=C(NC(=S)Nc1cccnc1Cl)c1ccc(F)cc1`, the AC50 under setting [1] was 7.08 µM [falling, partial curve]. On the same count and under the same terms, as for `Cc1nonc1NC(=O)c1oc2ccc(F)cc2c1C`, the figure is 0.631 µM [rising, full curve, poor fit]; as for `Fc1ccc(NC(=S)Nc2ccc(F)c(Cl)c2)cc1Cl`, 29.1 µM [falling, single point]. Same read-out and setting: the figure for `CCOc1cc(-c2nnc(SCC(=O)NCCCOC)nc2-c2ccc(OC)c(OCC)c2)ccc1OC` is 2.24 µM [rising, full curve, poor fit]; for `N#Cc1nc(-c2ccc(Cl)cc2)oc1NCCc1ccccn1` it is 29.1 µM [rising, single point]; for `CCOC(=O)c1cc2c(=O)n3ccccc3nc2n(Cc2ccco2)c1=NC(=O)c1ccc(OC)cc1OC` it is 15.8 µM [falling, partial curve, poor fit]. Still for that read-out and setting: as for `Cc1cccc(C)c1OCC(=O)Nc1ccc(NC(=O)c2ccco2)cc1`, the figure is 12.6 µM [rising, single point]. Regarding `O=C(Nc1ccncc1)c1ccc(Cl)c(Cl)c1`, the AC50 under setting [1] is 3.16 µM [rising, full curve, poor fit].

Broadly, the AC50 is the concentration at which the activity in the assay is half-maximal.
